Consider 1 molecule from patent US20150030603A1.

Chains of the proteins cited; added tags and fusions are not shown. Lines headed by an entry give the natural chain unless they say otherwise; changes in a name come on top.
UniProt O15123: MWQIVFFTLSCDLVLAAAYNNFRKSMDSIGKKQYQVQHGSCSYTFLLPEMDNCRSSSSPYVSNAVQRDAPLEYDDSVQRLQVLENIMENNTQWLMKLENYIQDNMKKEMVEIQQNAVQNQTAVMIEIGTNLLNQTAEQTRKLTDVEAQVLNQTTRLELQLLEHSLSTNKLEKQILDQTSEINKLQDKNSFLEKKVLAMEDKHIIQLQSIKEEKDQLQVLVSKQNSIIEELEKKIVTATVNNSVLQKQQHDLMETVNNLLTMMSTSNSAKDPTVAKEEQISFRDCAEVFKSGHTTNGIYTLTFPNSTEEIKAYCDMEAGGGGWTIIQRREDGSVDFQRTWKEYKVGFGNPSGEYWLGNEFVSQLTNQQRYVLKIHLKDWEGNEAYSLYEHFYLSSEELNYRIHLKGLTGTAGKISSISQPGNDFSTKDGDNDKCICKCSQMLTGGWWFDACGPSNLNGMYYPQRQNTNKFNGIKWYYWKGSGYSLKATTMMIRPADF

No constants are given. Whether binding was seen depends on the method and setting. Some entries that bind do so weakly or less than the wild type.

In this assay the target is FLAG-tagged hAng-2 (human) (UniProt O15123). Nature of the assay: sandwich (complex) ELISA: coated Tie2-Fc, FLAG-Ang2 0.25 µg/ml and 10D6 2 µg/ml added, bound 10D6 detected with anti-mouse IgG-HRP (OD450).

B1: SAIT-ANG2-AB-m10D6 (antibody, V domains shown)
VH: DVQLQESGPGLVKPSQSLSLTCTVTGYSITSDYAWNWIRQFPGNKLEWMGYINYSGNTDYNPSLKSRSSITRDTSKNQFFLQLNSVTTGDTATYYCARGNFEGAMDYWGQGTSVTVSS
VL: SIVMTQTPKFLLVSAGDRVTITCKASQSVSNDVAWYQQKPGQSPKLLIYYASNRYPGVPDRFTGSGYGTDFTFTISTVQAEDLAVYFCQQDYSSPWTFGGGTKLEIK
Take B1: the binding result was “binds”.
